No constants are given. Whether binding was seen depends on the method and setting. Binding seen in cells or lysates may run through a third protein. Some binding calls cover weakened binding; strength is not graded here. For part of these data: Sequences can lack the tags named with a protein.
Tests used:
[1] = molecular target: PH-interacting protein (human) (UniProt Q8WWQ0); assay: anti-FLAG immunoprecipitation of FLAG-WDR13 from HeLa cells, LC-MS/MS of the eluate
[2] = molecular target: T1, Histone deacetylase 7a (HDA7a) (human) (UniProt Q8WUI4); assay: as above
T1 sequence (looked up): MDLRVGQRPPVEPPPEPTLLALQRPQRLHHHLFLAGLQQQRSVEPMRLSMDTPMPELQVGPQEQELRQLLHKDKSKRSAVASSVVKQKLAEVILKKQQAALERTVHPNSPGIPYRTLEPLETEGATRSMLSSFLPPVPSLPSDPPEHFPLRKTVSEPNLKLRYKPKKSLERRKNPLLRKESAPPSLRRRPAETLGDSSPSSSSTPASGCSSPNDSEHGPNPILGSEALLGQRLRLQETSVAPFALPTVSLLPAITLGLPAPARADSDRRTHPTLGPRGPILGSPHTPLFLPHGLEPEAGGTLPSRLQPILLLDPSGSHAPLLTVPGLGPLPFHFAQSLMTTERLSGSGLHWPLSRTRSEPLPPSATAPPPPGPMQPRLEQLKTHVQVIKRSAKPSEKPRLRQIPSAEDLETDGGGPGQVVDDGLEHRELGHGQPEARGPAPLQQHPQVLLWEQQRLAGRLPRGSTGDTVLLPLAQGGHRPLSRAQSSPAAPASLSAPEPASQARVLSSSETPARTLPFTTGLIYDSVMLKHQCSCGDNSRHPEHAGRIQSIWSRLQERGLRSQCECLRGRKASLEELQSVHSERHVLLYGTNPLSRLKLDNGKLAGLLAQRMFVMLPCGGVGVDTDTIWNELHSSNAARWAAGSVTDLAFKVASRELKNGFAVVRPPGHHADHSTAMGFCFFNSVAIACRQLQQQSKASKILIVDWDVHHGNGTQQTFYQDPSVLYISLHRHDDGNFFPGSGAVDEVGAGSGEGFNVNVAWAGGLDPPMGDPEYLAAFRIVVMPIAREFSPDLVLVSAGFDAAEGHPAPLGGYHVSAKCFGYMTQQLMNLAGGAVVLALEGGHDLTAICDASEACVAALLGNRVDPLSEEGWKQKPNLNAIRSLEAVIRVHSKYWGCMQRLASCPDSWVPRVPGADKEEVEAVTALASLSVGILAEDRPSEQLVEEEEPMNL

Amino acid sequences for entries named in this document (tags omitted).
UniProt P03372: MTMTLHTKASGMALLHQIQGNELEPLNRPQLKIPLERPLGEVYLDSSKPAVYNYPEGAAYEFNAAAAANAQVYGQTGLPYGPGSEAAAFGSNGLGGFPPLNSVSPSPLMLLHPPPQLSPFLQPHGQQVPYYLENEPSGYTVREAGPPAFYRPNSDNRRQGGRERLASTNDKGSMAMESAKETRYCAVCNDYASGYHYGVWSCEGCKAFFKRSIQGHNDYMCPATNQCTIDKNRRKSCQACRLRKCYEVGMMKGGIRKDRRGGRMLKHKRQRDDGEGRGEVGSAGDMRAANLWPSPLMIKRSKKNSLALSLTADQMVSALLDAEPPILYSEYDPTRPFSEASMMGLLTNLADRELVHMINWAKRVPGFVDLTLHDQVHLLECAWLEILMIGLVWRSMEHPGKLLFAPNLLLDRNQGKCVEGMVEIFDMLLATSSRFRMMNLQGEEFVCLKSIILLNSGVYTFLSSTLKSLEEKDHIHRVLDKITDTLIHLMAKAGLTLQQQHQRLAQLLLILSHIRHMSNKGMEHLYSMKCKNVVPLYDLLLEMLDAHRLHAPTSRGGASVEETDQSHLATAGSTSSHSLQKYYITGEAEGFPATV
UniProt O08537: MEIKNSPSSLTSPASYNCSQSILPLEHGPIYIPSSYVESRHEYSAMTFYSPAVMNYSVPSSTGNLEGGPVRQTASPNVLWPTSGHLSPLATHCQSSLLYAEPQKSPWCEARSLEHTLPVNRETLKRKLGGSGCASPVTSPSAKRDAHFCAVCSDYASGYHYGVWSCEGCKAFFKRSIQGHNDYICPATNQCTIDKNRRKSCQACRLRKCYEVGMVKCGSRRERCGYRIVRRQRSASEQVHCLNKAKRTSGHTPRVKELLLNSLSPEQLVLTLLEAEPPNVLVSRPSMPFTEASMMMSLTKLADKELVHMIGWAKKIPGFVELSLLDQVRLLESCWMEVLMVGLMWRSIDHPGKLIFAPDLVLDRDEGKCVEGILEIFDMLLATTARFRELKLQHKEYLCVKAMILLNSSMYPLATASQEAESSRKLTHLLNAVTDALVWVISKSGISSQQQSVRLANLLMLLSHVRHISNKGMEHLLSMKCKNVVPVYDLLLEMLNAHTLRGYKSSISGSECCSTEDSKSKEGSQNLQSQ
UniProt O15379: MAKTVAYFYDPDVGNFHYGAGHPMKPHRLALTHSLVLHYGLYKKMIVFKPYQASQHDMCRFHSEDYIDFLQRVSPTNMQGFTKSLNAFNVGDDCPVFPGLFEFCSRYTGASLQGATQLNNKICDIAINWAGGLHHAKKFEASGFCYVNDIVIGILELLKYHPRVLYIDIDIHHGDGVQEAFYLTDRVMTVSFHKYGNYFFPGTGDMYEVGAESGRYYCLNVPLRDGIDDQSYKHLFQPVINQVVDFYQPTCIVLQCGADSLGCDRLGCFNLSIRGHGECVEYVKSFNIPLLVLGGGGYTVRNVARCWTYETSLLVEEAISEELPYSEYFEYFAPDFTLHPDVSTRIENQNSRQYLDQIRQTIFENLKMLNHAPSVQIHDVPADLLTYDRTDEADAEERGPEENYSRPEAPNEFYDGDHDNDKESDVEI
UniProt Q8C2B3: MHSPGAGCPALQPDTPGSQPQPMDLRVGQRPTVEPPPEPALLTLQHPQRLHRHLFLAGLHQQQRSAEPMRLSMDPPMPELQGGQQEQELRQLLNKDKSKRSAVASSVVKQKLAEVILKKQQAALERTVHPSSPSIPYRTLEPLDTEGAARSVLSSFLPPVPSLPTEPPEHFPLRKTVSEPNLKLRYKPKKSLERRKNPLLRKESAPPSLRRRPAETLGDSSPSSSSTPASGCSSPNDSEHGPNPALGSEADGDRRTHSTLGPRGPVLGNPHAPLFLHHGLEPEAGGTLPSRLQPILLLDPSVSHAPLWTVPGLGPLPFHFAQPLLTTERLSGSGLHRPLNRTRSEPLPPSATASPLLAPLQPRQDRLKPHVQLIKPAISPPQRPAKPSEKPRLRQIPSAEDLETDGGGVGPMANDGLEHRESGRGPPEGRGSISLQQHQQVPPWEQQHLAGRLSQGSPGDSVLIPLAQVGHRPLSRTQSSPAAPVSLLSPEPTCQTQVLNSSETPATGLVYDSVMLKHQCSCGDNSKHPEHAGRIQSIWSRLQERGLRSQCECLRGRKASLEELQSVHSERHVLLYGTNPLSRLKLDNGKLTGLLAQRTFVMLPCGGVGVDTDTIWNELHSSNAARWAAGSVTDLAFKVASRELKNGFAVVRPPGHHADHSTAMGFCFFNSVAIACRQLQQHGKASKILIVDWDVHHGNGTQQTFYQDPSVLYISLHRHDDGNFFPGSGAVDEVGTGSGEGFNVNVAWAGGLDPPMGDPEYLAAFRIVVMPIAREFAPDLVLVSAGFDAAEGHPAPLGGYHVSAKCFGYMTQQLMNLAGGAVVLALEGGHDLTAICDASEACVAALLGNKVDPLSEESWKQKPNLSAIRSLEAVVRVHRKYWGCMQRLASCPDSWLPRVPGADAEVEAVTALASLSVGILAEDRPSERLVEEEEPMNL
UniProt Q13547: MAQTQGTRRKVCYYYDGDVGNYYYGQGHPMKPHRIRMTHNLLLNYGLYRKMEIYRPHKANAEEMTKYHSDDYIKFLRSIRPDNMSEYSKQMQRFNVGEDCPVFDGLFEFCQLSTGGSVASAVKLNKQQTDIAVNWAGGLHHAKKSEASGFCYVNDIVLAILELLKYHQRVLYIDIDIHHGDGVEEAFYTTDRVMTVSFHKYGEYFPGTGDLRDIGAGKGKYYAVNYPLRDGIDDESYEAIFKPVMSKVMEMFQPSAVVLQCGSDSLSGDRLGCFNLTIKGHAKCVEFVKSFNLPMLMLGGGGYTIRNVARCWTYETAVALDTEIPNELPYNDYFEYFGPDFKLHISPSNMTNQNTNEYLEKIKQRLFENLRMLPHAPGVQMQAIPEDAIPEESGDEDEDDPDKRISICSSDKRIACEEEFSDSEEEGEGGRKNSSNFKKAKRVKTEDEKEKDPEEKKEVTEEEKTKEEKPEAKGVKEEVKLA
UniProt Q91V09: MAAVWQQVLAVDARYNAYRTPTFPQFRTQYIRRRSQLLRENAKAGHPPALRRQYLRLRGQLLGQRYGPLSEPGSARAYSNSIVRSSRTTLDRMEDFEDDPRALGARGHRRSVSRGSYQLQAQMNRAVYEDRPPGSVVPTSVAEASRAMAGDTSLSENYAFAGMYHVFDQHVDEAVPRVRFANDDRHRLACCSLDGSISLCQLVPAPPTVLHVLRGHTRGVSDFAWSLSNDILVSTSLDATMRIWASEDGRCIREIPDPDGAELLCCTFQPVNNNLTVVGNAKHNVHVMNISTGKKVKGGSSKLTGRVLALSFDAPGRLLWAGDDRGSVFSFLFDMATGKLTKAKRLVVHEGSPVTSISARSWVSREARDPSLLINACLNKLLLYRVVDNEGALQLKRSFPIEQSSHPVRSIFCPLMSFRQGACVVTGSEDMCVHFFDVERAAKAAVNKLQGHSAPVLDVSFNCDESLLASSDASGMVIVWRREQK

GFP-ERα (human) [3] = molecular target: GFP-ERα (human) (UniProt P03372); assay: co-immunoprecipitation, HEK 293 cells, with or without estradiol
[4] = molecular target: Myc-tagged estrogen receptor beta (UniProt O08537); assay: as above
GFP-ERα (human) [5] = molecular target: GFP-ERα (human) (UniProt P03372); assay: co-immunoprecipitation from co-transfected HEK 293 cells with or without estradiol: anti-FLAG IP, anti-GFP blot
GFP-ERα (human) [6] = molecular target: GFP-ERα (human) (UniProt P03372); assay: co-immunoprecipitation, HEK 293 cells
[7] = molecular target: Myc-tagged estrogen receptor beta (UniProt O08537); assay: co-immunoprecipitation, HEK 293 cells
[8] = molecular target: Myc PHIP1 (Pleckstrin homology domain interacting protein1) fusion protein (UniProt Q8VDD9); assay: co-immunoprecipitation, HEK 293 cells
[9] = molecular target: Myc PHIP1 (Pleckstrin homology domain interacting protein1) fusion protein (UniProt Q8VDD9); assay: co-immunoprecipitation from co-transfected HEK 293 cells: anti-FLAG IP, anti-Myc blot
[10] = molecular target: Myc-tagged estrogen receptor beta (UniProt O08537); assay: co-immunoprecipitation from co-transfected HEK 293 cells with or without estradiol: anti-FLAG IP, anti-Myc blot
[11] = molecular target: PH-interacting protein (human) (UniProt Q8WWQ0); assay: anti-FLAG immunoprecipitation of FLAG-WDR13 from HeLa cells, LC-MS/MS
[12] = molecular target: T1, Histone deacetylase 7a (HDA7a) (human); assay: as above
hHDAC3-FLAG (human) [13] = molecular target: hHDAC3-FLAG (human) (UniProt O15379); assay: co-immunoprecipitation, HEK 293 cells
mHDAC7-FLAG (mouse) [14] = molecular target: mHDAC7-FLAG (mouse) (UniProt Q8C2B3); assay: co-immunoprecipitation, HEK 293 cells
hHDAC1-FLAG (human) [15] = molecular target: hHDAC1-FLAG (human) (UniProt Q13547); assay: co-immunoprecipitation, HEK 293 cells
hHDAC3-FLAG (human) [16] = molecular target: hHDAC3-FLAG (human) (UniProt O15379); assay: co-immunoprecipitation from co-transfected HEK 293 cells: anti-FLAG IP, anti-Myc blot
mHDAC7-FLAG (mouse) [17] = molecular target: mHDAC7-FLAG (mouse) (UniProt Q8C2B3); assay: as above
hHDAC1-FLAG (human) [18] = molecular target: hHDAC1-FLAG (human) (UniProt Q13547); assay: as above

binding [1]	binding [2]	binding (GFP-ERα (human) [3])	binding [4]	binding (GFP-ERα (human) [5])	binding (GFP-ERα (human) [6])	binding [7]	binding [8]	binding [9]	binding [10]	binding [11]	binding [12]	binding (hHDAC3-FLAG (human) [13])	binding (mHDAC7-FLAG (mouse) [14])	binding (hHDAC1-FLAG (human) [15])	binding (hHDAC3-FLAG (human) [16])	binding (mHDAC7-FLAG (mouse) [17])	binding (hHDAC1-FLAG (human) [18])	Substance
binds	binds	binds	binds	binds	binds	binds	binds	binds	binds	binds	binds	–	–	–	–	–	–	FLAG-WDR13 fusion protein (from UniProt Q91V09 1-485)
–	–	–	–	–	–	–	–	–	–	–	–	binds	binds	binds	binds	binds	binds	Myc WDR13 fusion protein (from UniProt Q91V09 1-485)

From patent publication US20140157444A1
